Test results from the supplement of paper PMC10849652.
The list shows a part of the results.

The chains behind the UniProt entries cited, without tags or fusion partners. Where a name states a change or a piece, a line headed by the entry shows the natural chain unless it says otherwise.
UniProt Q6RW13: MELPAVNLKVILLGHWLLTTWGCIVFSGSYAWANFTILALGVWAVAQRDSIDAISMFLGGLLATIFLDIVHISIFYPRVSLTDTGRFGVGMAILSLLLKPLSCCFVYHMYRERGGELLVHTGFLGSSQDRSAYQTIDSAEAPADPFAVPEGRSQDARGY
UniProt Q9H9F9, whole entry, looked up: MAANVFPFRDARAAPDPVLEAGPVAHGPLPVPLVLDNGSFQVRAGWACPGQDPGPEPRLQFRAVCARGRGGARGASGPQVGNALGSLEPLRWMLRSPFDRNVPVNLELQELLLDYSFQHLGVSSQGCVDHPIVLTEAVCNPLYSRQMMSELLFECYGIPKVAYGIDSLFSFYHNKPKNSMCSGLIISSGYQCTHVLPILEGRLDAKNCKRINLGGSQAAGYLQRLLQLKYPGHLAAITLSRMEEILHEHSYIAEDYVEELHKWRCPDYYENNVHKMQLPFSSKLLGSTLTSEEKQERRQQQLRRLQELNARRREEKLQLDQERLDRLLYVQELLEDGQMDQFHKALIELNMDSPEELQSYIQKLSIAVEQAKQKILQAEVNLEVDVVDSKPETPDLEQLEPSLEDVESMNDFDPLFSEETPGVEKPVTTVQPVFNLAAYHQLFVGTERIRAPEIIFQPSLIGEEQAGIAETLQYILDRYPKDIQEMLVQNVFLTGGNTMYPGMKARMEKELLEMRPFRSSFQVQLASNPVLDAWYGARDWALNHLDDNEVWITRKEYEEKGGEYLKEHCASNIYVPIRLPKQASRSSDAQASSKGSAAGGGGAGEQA
UniProt Q9UKV8, whole entry, looked up: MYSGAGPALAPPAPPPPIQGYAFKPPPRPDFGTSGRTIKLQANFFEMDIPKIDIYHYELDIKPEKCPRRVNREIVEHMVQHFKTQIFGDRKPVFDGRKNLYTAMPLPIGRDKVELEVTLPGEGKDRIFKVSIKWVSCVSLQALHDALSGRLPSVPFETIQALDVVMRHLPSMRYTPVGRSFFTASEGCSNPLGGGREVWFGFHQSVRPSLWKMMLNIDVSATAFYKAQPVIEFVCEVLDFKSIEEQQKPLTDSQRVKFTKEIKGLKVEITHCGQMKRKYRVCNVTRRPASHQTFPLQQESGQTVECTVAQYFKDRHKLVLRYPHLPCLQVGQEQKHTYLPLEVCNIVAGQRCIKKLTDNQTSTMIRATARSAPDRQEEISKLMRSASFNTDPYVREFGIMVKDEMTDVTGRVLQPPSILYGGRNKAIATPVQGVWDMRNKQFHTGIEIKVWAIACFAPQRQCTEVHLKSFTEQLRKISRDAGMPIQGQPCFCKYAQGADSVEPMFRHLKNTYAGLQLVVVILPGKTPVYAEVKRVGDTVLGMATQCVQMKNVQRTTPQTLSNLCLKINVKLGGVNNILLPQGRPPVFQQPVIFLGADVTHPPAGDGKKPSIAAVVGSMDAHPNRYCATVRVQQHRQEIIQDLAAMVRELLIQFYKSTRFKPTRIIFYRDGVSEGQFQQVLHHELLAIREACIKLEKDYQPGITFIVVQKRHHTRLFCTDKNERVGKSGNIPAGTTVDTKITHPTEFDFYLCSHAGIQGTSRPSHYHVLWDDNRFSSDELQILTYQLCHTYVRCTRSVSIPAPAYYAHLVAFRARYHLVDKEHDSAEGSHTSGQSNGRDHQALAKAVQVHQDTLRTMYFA
UniProt Q3LIE5: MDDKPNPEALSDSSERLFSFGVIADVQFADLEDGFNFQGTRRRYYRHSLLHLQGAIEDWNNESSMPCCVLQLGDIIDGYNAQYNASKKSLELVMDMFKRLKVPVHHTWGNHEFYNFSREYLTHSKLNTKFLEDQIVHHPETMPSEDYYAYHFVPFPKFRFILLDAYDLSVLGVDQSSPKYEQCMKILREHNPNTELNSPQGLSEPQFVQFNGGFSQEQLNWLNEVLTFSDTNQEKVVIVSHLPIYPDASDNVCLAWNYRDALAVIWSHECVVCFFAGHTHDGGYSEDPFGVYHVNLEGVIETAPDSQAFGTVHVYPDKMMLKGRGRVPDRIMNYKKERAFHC
UniProt P13686: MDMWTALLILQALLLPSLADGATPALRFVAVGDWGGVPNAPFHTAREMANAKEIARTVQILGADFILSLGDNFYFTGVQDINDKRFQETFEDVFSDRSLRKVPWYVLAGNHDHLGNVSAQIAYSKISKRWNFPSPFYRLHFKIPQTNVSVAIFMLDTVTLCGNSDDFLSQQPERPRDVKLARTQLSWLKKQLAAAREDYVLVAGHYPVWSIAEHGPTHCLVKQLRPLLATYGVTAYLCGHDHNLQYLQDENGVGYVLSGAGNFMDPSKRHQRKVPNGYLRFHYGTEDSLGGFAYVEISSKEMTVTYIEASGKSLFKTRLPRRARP
UniProt Q9NZD4: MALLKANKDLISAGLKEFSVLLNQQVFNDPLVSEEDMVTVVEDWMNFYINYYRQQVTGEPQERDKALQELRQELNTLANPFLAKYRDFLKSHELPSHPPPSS
UniProt Q9UKU0: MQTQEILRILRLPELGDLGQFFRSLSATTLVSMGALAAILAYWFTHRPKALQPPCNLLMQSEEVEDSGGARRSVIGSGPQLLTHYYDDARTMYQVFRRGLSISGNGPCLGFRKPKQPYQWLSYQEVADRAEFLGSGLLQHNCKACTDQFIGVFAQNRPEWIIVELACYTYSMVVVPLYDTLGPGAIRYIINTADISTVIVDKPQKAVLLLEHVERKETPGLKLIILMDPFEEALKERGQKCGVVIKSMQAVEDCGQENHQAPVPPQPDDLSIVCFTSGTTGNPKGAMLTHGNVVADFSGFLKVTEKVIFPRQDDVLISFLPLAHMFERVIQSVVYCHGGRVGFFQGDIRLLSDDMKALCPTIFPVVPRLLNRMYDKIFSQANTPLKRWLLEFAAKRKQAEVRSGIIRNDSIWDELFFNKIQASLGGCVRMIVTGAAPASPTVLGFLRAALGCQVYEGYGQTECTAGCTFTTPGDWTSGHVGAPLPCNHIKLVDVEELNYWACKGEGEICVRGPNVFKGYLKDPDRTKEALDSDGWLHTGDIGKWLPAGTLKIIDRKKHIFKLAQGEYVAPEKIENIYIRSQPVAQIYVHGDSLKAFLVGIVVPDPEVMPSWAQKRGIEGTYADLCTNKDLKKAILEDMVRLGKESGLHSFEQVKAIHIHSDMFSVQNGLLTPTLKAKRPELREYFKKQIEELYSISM
UniProt Q8N157: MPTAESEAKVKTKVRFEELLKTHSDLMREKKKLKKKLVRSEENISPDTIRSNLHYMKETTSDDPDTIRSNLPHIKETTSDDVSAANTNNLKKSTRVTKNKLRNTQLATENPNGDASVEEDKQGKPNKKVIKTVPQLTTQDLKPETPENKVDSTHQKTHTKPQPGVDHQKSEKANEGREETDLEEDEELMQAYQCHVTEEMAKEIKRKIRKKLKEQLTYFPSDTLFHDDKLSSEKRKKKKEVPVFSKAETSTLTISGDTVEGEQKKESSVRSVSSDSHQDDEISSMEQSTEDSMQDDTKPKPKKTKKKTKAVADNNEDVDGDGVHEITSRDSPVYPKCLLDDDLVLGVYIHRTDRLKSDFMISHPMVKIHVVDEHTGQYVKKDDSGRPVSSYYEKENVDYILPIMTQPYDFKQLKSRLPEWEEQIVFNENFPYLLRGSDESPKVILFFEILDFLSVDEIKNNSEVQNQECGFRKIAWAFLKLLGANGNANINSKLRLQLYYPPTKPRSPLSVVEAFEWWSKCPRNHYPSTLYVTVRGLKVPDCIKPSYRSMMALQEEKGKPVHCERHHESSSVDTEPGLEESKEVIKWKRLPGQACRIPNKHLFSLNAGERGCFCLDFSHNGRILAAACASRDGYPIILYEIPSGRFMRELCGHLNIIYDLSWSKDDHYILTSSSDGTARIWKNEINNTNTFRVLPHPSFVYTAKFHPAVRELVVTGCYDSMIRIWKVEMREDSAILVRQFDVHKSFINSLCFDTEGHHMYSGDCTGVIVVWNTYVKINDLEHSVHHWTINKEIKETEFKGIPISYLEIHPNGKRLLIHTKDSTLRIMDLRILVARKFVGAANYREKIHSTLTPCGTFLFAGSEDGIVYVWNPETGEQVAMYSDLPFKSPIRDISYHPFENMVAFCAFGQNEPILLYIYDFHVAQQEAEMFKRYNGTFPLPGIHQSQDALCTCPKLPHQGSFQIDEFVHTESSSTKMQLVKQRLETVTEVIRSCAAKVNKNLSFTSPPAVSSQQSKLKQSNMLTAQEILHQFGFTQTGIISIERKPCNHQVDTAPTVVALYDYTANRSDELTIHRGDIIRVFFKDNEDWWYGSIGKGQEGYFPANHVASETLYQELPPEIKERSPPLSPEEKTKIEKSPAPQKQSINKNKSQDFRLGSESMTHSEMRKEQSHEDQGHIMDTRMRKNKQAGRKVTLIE
UniProt O95081: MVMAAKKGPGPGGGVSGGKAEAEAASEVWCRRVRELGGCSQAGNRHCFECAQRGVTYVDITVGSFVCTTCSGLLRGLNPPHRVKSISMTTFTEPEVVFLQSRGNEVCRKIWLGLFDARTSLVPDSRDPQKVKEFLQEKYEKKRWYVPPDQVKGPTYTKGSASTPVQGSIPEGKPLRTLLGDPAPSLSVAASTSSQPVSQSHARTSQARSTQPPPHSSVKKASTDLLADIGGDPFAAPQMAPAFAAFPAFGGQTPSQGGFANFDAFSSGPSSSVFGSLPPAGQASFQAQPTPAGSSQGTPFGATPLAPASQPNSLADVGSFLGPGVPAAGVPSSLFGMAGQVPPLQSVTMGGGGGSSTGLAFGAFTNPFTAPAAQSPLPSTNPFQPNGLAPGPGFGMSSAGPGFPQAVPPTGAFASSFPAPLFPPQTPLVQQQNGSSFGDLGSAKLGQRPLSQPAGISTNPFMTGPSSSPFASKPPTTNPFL
UniProt O60218, whole entry, looked up: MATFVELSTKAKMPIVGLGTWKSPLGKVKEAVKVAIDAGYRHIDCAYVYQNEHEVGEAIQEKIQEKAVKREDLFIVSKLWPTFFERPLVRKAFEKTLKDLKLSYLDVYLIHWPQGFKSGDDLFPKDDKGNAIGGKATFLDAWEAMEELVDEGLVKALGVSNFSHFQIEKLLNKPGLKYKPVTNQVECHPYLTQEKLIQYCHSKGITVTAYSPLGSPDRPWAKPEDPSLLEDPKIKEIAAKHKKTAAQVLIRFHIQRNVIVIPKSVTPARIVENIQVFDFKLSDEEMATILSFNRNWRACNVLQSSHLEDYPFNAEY
UniProt Q13705: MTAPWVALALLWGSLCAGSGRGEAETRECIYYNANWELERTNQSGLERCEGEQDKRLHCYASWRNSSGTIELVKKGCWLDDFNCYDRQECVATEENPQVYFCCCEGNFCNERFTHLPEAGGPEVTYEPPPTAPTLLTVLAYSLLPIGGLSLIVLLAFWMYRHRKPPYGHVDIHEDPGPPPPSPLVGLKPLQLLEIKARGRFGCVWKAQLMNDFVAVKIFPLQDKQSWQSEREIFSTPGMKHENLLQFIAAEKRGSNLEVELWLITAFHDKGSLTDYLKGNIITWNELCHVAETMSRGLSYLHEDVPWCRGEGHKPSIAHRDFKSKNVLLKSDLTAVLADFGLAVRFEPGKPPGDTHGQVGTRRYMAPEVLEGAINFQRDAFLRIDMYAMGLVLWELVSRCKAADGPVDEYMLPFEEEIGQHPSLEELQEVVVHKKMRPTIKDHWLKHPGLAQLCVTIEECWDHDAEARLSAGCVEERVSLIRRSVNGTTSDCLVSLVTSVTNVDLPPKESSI
UniProt O15254: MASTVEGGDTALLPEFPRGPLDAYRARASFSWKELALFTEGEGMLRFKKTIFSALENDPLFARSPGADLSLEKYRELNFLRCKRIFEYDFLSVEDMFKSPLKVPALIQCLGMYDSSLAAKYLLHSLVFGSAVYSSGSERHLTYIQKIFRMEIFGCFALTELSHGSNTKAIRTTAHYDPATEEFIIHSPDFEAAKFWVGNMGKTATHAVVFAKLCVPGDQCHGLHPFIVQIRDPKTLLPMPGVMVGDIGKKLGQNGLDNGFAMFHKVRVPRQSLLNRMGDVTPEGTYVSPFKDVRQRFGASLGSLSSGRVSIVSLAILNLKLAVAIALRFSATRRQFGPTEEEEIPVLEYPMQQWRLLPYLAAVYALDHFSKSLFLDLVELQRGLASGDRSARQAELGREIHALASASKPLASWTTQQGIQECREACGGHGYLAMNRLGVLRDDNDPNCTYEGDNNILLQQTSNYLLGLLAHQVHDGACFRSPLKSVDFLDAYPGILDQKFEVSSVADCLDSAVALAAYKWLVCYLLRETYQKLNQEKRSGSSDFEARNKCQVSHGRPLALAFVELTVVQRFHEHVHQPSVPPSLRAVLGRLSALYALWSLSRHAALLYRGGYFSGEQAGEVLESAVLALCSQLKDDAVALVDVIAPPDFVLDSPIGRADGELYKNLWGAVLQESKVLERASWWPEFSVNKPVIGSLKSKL
UniProt Q63HM1: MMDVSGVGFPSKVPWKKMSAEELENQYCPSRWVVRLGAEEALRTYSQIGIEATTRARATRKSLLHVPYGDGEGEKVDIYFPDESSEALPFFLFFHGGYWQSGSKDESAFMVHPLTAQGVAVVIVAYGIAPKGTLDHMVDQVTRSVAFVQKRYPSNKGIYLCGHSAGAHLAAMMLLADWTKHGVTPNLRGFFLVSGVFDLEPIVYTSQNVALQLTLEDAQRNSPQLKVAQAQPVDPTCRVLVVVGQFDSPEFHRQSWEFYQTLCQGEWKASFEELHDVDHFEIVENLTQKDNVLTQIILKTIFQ

Experiments:
Assay in all cases: log2 fold change, soluble protein after heating vs DMSO (PISA); higher = thermal stabilisation; K562 lysate, 10 uM; active = over 0.2 and 3.5 SD of the protein, either way, in both replicates (recomputed)
[1] = compound: Cc1cn(-c2cc(NC(=O)c3ccc(C)c(Nc4nccc(-c5cccnc5)n4)c3)cc(C(F)(F)F)c2)cn1 [nilotinib]
Method in brief: (§1)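 Quantification was by TMTpro 16plex LC-MS/MS with equalised channel sums, applied to the supernatant after 21,000xg for 90 min. Samples were crude K562 extract at 1 mg/mL protein in PBS pH 7.4 with 1 mM MgCl2, treated with 10 μM compound for 30 min, heated for 3 min across 48°C-58°C, pooled and brought to 0.5% NP-40 at 4°C. Values are log-two fold changes in thermal stability relative to solvent controls, from duplicates.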

[2] = compound: Cc1nc(Nc2n[nH]c3c2CN(C(=O)N[C@H](CN(C)C)c2ccccc2)C3(C)C)c2sccc2n1
Method in brief: as §1

[3] = compound: Cc1nc(Nc2ncc(C(=O)Nc3c(C)cccc3Cl)s2)cc(N2CCN(CCO)CC2)n1 [dasatinib]
Method in brief: as §1

[4] = compound: Cc1ncc(-c2ccnc(Nc3ccc(S(C)(=O)=O)cc3)n2)n1C(C)C
Method in brief: as §1

[5] = compound: Cn1cc(-c2ccc3c(c2)CCN3C(=O)Cc2cccc(C(F)(F)F)c2)c2c(N)ncnc21
Method in brief: as §1

[6] = compound: Cn1cc(CNCC2CCN(c3ncc(C(=O)NO)cn3)CC2)c2ccccc21 [quisinostat]
Method in brief: as §1

[7] = compound: Cn1cncc1[C@@](N)(c1ccc(Cl)cc1)c1ccc2c(c1)c(-c1cccc(Cl)c1)cc(=O)n2C [tipifarnib]
Method in brief: as §1

[8] = compound: NC(=O)Nc1cc(-c2cccc(F)c2)sc1C(=O)N[C@H]1CCCNC1
Method in brief: as §1

[9] = compound: NC(=O)c1cnc(N[C@@H]2CCCC[C@@H]2N)nc1Nc1cccc(-n2nccn2)c1
Method in brief: as §1

[10] = compound: NC1(c2ccc(-c3nc4ccn5c(=O)[nH]nc5c4cc3-c3ccccc3)cc2)CCC1
Method in brief: as §1

Measured: log2 fold change

AGTRAP (UniProt Q6RW13)
inactive: [1] -0.016 | [2] -0.02 | [3] -0.019 | [4] 0.075 | [5] 0.049 | [6] -0.071 | [7] -0.05 | [8] 0.038 | [9] -0.046 | [10] -0.017

ACTR5 (UniProt Q9H9F9)
inactive: [1] 0 | [2] 0 | [3] -0.072 | [4] 0.047 | [5] 0.029 | [6] 0.085 | [7] -0.016 | [8] -0.107 | [10] 0.02

ACTN2, A0A494C031
inactive: [1] -0.037 | [2] 0.155 | [4] -0.078 | [6] -0.378 | [7] -0.085 | [8] 0 | [9] 0.164 | [10] -0.156

AGPAT2 (UniProt O15120)
inactive: [1] -0.044 | [2] 0.046 | [4] -0.037 | [6] 0.006 | [7] 0.029 | [8] 0.018 | [10] 0.02

ACVR1 (UniProt Q04771)
inactive: [1] -0.11 | [2] 0.013 | [3] 0.258 | [4] 0.476 | [5] -0.046 | [7] -0.309

AKNA (UniProt Q7Z591)
inactive: [1] -0.167 | [2] -0.225 | [3] -0.08 | [4] 0.135 | [5] -0.019 | [6] -0.064 | [7] -0.222 | [8] -0.045 | [9] -0.064 | [10] 0

ADPRHL2 (UniProt Q9NX46)
inactive: [1] -0.031 | [2] 0.023 | [3] -0.031 | [4] 0.037 | [5] 0.011 | [6] 0.124 | [7] -0.005 | [8] -0.005 | [9] 0.001 | [10] 0.006

AGO2 (UniProt Q9UKV8)
inactive: [1] -0.084 | [2] 0 | [3] -0.004 | [4] 0.006 | [5] 0.001 | [6] -0.006 | [7] -0.001 | [8] 0.016 | [9] -0.004 | [10] 0.006

ADIPOR1 (UniProt Q96A54)
inactive: [1] -0.022 | [2] -0.004 | [3] -0.042 | [4] -0.212 | [5] 0.072 | [6] 0.074 | [7] 0.099 | [8] -0.019 | [10] -0.018

ADNP (UniProt Q9H2P0)
inactive: [1] -0.004 | [2] 0.033 | [3] -0.051 | [4] 0.03 | [5] -0.009 | [6] -0.028 | [7] -0.009 | [8] 0.048 | [9] 0.007 | [10] 0.009

ADPRM (UniProt Q3LIE5)
inactive: [6] 0.009 | [8] 0.058

ADD1 isoform 4 (UniProt P35611)
inactive: [3] -0.017 | [5] -0.075 | [9] -0.109 | [10] -0.274

Pulled one by one from the list above, 2 records:
ADPRM (UniProt Q3LIE5)
inactive: [6] 0.009 | [8] 0.058

ADNP (UniProt Q9H2P0)
inactive: [1] -0.004 | [2] 0.033 | [3] -0.051 | [4] 0.03 | [5] -0.009 | [6] -0.028 | [7] -0.009 | [8] 0.048 | [9] 0.007 | [10] 0.009

(next part)

ACP5 (UniProt P13686)
inactive: [10] -0.087

AHSP (UniProt Q9NZD4)
inactive: [1] 0.207 | [2] -0.005 | [4] 0.226 | [7] -0.065 | [9] -0.008

ACSL6 isoform 1 (UniProt Q9UKU0)
inactive: [9] 0.031 | [10] 0.043

ACTN4 (UniProt H7C144)
inactive: [3] -0.052 | [5] -0.034

AHI1 (UniProt Q8N157)
inactive: [10] 0.188

AHCTF1 isoform 2 (UniProt Q8WYP5)
inactive: [9] 0.067 | [10] -0.03

AFAP1L1 (UniProt Q8TED9)
inactive: [3] 0.029 | [5] -0.112 | [6] 0.226 | [8] 0.007 | [9] 0.123 | [10] -0.079

AGFG2 (UniProt O95081)
inactive: [3] 0.018 | [5] 0.036 | [6] 0.04 | [8] 0.084 | [9] 0.009 | [10] -0.137

AIMP2 isoform 2 (UniProt Q13155)
inactive: [6] -0.106 | [8] 0.067 | [9] 0.017

AKAP17A (UniProt Q02040)
inactive: [3] -0.096 | [5] 0.079 | [6] 0.039 | [8] -0.098 | [9] 0 | [10] -0.312

AKR1B10 (UniProt O60218)
inactive: [3] 2.04 | [5] -0.042

AFDN (UniProt H0Y948)
inactive: [6] 0.102 | [8] -0.019

ADAM15 (UniProt Q13444)
inactive: [3] -0.415 | [5] 0.032 | [6] 0.01 | [8] -0.061 | [9] 0.111 | [10] 0.044

ADCY3 (UniProt O60266)
inactive: [3] -0.002 | [5] 0.034 | [10] 0.359

AJUBA (UniProt Q96IF1)
inactive: [3] 0.064 | [5] -0.129 | [6] -0.097 | [8] 0.02

AGO2 (UniProt E5RJY2)
inactive: [1] -0.36 | [2] 0.399 | [4] 0.155 | [7] 0.099 | [9] -0.025

ACTG1 (UniProt K7EM38)
inactive: [9] 0.171

AGPAT4 (UniProt Q9NRZ5)
inactive: [6] -0.138 | [8] 0.046 | [10] 0.042

ACTB, A0A2R8YEA7
inactive: [1] 0.171 | [2] -0.194 | [4] 0.173 | [7] -0.069 | [9] -0.206

AFDN (UniProt A8MQ02)
inactive: [9] -0.205

ADAD1 (UniProt Q96M93)
inactive: [3] -0.048 | [5] 0.037 | [9] 0.003

AKR1C1 (UniProt Q04828)
inactive: [3] 0.057 | [5] -0.028 | [9] 0.094 | [10] 0.011

AGTRAP isoform 2 (UniProt Q6RW13)
inactive: [9] -0.043

ACTB (UniProt C9JUM1)
inactive: [1] 0.331 | [2] -0.094 | [4] 0.01 | [7] 0.173 | [9] -0.102

ACVR2B (UniProt Q13705)
inactive: [10] -0.151

AGA (UniProt P20933)
inactive: [6] 0.084 | [8] -0.029 | [9] 0.048 | [10] 0.01

ACOX3 (UniProt O15254)
inactive: [3] -0.065 | [5] -0.047

ADK, A0A5F9ZH76
inactive: [1] -0.267 | [2] 0.089 | [4] 0.065 | [7] 0.487 | [9] -0.083

AFMID isoform 2 (UniProt Q63HM1)
inactive: [6] 0.033 | [8] 0.03

AEBP2 (UniProt Q6ZN18)
inactive: [3] 0.126 | [5] -0.096 | [6] -0.164 | [8] 0.037 | [9] -0.07 | [10] -0.018

ADD3 isoform 2 (UniProt Q9UEY8)
inactive: [6] -0.065 | [8] 0.055
